Experimental data as given in the supplement of paper PMC12819154, “High-throughput peptide-centric local stability assay extends protein–ligand identification to membrane proteins, tissues and bacteria” (Nature Structural & Molecular Biology, 2025).
The other results are listed elsewhere or left out. Most values lie at the level of the controls, where differences are scatter.

The chains behind the UniProt entries cited, without tags or fusion partners. Where a name states a change or a piece, a line headed by the entry shows the natural chain unless it says otherwise.
UniProt Q62504: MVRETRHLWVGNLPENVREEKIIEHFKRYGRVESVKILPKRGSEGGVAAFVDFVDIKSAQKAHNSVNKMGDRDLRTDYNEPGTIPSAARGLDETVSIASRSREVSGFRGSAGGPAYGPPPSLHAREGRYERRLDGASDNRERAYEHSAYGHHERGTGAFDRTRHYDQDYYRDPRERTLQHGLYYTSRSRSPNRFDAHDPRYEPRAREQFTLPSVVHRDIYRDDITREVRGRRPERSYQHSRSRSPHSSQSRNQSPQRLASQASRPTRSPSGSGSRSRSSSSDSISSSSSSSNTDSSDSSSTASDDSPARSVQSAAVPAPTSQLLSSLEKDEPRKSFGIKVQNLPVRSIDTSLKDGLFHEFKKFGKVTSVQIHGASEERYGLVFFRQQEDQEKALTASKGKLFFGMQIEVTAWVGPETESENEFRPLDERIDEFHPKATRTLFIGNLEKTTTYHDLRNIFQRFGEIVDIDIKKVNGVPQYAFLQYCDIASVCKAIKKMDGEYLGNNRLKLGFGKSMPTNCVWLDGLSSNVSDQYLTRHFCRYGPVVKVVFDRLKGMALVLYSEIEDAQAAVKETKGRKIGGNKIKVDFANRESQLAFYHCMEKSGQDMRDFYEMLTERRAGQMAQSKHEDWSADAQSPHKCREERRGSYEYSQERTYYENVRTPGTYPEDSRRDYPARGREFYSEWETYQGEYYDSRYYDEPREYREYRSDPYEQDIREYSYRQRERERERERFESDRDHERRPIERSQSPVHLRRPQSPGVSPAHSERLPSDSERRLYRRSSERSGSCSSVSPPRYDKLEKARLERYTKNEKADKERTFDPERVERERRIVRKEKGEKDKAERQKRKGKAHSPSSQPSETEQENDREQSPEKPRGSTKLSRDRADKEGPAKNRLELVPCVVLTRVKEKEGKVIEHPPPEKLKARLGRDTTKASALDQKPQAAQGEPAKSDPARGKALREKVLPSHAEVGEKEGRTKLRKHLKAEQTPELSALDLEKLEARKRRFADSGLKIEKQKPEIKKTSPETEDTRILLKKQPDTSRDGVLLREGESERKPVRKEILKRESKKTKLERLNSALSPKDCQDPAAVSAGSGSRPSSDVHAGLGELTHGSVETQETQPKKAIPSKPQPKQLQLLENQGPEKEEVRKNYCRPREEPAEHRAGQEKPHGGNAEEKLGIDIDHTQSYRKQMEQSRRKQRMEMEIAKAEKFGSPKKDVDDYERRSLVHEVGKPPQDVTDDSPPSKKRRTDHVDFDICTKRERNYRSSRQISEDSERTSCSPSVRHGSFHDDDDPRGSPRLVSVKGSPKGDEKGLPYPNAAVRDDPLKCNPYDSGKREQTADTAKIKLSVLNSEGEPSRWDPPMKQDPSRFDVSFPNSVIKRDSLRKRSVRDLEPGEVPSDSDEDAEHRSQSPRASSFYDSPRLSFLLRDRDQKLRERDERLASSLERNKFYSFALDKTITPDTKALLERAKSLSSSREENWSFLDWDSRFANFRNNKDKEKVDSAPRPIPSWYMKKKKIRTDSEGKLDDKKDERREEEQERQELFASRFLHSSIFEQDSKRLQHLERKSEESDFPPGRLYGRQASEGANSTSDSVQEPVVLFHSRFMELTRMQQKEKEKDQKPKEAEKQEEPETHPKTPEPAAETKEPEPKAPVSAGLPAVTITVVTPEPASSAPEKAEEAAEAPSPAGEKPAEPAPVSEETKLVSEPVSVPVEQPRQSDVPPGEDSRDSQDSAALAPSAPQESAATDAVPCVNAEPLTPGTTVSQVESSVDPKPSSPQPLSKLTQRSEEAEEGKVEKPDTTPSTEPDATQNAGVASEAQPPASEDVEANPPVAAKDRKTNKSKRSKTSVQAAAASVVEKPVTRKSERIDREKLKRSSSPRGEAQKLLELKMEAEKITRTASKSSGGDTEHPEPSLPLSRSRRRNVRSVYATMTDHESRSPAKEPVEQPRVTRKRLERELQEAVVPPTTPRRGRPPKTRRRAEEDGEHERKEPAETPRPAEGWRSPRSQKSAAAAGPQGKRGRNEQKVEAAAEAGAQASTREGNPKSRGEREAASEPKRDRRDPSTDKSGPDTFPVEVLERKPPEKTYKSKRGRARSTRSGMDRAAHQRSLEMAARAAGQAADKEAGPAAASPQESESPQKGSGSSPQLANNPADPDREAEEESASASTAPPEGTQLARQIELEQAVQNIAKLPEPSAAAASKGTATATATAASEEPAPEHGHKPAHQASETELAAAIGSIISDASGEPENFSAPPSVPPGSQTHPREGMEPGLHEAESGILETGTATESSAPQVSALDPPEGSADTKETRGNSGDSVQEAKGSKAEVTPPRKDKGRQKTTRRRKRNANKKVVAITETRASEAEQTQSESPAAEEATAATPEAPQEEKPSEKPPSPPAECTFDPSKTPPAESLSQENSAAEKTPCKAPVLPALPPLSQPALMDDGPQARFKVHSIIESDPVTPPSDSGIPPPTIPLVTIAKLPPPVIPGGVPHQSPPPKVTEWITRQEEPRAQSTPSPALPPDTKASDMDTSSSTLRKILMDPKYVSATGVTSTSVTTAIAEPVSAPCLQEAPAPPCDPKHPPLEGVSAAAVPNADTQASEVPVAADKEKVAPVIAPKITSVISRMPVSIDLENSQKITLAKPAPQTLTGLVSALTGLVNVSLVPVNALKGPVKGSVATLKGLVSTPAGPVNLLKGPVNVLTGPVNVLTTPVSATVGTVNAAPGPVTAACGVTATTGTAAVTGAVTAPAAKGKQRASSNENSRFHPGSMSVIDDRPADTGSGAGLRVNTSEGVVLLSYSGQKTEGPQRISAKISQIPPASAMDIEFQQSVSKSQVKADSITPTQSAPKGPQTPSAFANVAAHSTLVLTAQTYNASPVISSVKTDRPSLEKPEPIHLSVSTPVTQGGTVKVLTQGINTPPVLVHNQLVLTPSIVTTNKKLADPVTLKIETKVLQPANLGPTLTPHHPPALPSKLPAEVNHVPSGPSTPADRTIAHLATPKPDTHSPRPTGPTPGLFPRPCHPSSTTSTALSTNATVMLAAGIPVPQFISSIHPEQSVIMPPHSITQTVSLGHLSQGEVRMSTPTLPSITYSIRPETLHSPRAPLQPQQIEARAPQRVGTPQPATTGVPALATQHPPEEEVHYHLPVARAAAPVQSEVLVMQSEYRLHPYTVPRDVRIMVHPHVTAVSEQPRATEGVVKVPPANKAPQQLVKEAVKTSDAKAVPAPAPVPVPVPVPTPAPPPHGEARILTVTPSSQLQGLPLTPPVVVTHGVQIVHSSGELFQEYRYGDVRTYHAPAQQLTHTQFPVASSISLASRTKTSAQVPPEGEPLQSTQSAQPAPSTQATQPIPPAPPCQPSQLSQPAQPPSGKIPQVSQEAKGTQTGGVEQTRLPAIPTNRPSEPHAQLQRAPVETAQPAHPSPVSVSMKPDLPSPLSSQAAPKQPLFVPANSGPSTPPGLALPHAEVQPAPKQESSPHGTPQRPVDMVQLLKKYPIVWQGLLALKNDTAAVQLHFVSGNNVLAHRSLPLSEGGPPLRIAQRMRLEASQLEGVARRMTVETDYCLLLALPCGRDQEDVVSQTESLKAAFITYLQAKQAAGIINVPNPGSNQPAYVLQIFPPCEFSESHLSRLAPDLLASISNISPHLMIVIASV
UniProt Q62351, whole entry: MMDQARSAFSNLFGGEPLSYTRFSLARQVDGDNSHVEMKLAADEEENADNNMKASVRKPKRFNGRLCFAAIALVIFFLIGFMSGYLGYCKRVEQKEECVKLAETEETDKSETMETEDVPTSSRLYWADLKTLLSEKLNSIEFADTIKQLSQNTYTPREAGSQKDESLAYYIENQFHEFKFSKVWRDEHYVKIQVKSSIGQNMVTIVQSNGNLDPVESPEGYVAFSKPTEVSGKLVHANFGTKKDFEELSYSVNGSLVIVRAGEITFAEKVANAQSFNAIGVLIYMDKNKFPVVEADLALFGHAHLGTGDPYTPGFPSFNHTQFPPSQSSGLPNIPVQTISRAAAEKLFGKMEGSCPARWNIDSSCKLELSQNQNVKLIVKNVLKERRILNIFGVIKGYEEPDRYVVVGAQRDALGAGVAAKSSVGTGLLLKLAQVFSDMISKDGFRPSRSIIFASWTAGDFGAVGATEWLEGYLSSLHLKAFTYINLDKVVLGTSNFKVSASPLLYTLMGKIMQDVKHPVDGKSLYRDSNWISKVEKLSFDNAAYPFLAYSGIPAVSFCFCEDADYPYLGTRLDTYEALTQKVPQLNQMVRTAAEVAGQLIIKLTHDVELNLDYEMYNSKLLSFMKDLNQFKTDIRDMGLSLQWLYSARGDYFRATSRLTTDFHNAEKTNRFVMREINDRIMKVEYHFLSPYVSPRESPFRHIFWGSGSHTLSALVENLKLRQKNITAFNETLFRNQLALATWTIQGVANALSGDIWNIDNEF
UniProt Q6IRU5: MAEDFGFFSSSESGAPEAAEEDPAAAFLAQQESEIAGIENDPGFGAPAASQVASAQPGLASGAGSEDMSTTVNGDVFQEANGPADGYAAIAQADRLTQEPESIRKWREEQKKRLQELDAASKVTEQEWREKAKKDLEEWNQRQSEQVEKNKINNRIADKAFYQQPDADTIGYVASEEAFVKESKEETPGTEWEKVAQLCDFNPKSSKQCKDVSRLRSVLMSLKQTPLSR
UniProt Q60829: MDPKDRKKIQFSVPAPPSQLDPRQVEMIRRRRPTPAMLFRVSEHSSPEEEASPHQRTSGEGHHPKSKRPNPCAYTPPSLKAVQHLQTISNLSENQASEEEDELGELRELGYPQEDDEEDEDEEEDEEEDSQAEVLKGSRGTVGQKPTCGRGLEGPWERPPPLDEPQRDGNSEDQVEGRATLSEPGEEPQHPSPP
UniProt Q60668: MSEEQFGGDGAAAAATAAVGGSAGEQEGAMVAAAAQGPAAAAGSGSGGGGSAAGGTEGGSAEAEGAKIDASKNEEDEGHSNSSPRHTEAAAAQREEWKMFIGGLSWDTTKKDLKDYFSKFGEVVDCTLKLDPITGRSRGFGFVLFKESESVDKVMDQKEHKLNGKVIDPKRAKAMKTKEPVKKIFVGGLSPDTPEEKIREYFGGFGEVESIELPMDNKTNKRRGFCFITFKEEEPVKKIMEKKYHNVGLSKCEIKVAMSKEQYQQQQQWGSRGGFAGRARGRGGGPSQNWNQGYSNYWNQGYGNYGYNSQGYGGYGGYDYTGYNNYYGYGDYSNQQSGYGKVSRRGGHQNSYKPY
UniProt Q62418: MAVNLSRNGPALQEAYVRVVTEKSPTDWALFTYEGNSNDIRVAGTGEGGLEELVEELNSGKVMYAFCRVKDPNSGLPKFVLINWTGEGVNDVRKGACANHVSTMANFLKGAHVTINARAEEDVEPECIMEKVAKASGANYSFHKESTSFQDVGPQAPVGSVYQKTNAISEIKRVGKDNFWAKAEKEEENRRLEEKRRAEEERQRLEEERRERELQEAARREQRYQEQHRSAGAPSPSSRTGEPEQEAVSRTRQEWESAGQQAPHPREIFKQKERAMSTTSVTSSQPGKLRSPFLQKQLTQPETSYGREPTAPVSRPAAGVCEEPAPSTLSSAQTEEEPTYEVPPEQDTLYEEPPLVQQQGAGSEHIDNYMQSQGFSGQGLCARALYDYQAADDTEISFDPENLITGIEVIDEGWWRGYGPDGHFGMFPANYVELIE
UniProt Q61391: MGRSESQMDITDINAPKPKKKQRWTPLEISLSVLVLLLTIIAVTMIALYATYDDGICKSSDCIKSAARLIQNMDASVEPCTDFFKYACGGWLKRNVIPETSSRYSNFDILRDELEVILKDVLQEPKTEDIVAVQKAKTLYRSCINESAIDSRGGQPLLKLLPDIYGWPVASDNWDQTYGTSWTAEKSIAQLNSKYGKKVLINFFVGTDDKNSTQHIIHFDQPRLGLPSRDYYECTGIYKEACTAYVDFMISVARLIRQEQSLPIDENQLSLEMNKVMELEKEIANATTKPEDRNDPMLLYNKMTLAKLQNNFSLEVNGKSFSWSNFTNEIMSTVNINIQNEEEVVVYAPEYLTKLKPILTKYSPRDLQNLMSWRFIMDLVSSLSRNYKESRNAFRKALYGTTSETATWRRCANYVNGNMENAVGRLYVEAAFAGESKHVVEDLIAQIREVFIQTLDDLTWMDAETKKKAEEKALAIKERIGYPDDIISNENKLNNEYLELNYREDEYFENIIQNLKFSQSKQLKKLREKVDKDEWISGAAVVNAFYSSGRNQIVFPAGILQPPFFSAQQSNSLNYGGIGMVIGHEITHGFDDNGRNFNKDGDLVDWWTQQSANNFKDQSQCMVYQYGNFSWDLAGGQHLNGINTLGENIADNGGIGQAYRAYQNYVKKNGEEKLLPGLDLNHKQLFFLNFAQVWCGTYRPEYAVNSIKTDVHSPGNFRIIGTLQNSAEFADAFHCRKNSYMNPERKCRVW
UniProt Q61462: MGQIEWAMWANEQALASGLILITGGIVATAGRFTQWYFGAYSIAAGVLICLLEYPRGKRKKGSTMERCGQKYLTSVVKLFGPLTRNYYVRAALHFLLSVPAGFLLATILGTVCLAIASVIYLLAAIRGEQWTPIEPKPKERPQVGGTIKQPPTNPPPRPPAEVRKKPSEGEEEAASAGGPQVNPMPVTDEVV

compound: CN[C@@H]1C[C@H]2O[C@@](C)([C@@H]1OC)n1c3ccccc3c3c4c(c5c6ccccc6n2c5c31)C(=O)NC4 [staurosporine]; experiment: log2 fold change of pooled soluble protein (PISA), ligand vs vehicle (log2 ratio); higher = more thermally stabilized; details: ligand concentration: 20 uM; assay format: PISA pool 52.9/55.5/58.6 C

Target | log2 fold change of pooled soluble protein
UniProt Q68FD5 | -0.0409
UniProt Q6IQX8 | -0.104
UniProt Q61337 | 0.0654
UniProt Q64462 | 0.0674
UniProt Q61490 | -0.00961
UniProt Q64314 | 0.419
UniProt Q61508 | 0.000811
UniProt Q6A026 | -0.0733
UniProt Q60631 | -0.074
UniProt Q60759 | -0.0375
UniProt Q62504 | 0.0477
UniProt Q61419 | 0.0398
UniProt Q61136 | 0.0416
UniProt Q62048 | 0.228
UniProt Q5SUR0 | 0.0312
UniProt Q60855 | 0.0735
UniProt Q62186 | -0.289
UniProt Q62351 | 0.0198
UniProt Q6IRU5 | 0.152

As entered above:
log2 fold change of pooled soluble protein, UniProt Q62048 reads 0.228
log2 fold change of pooled soluble protein, UniProt Q60759 reads -0.0375

Next results follow.

Target | log2 fold change of pooled soluble protein
UniProt Q61624 | -0.0558
UniProt Q60829 | -0.659
UniProt Q60668 | -0.0541
UniProt Q69ZQ2 | -0.0535
UniProt Q62418 | -0.0776
UniProt Q62261 | -0.0322
UniProt Q61823 | 0.0552
UniProt Q61581 | -0.0595
UniProt Q6IRU2 | -0.046
UniProt Q60864 | -0.074
UniProt Q61391 | -0.0485
UniProt Q61146 | 0.0112
UniProt Q60865 | -0.0306
UniProt Q61462 | -0.116
UniProt Q6GQT9 | -0.125
UniProt Q6NVF9 | 0.0339
UniProt Q62417 | -0.0542
UniProt Q61792 | -0.272
